# Results as given in US8105745B2, “Radiation crosslinker” (National University of Singapore, priority 2005, dated 2012).
# Experiment: film retention after 254-nm DUV photocrosslinking and development, PSSH film
# From the text: FIG. 1 Normalized film thickness retention for (squares) PSSH (Mw=530 k) with I deposited from MeOH solution (dotted line as visual guide), photoexposed and developed with H2O; (diamond) PSSH with V, H2O, developed with H2O; (upright triangles) PSSNa (Mw=70 k) with V, H2O, developed with MeOH; (inverted triangle) PDAMC1 (Mw=400 k) with V, H2O, developed 3:1 i-PrOH—H2O; (circles) PEDT:PSSTMA conducting polyelectrolyte complex with V, H2O, developed with H2O. Starting film thickness was between 50-200 nm. Film thickness was measured by profilometry or ellipsometry, before and after development. Typically films with the appropriate concentration of the crosslinker were spin-cast onto clean pristine or APS-treated Si wafers, dehydrated at 100° C. for 5 min (PSSH and PEDT:PSSTMA) or more strongly at 130° C. for 20 min (PSSNa and PDAMC1) in the glovebox, exposed to 254-nm DUV (ca. 1 mW cm^−2, 3-5 min) in nitrogen, and developed accordingly. A typical error bar is indicated. […]
# In this way, a poly(styrene sulfonic acid) (PSSH) film deposited from MeOH solution was successfully crosslinked with 1-10 wt % I upon DUV exposure. […] Therefore the film retention measured here is solely due to the crosslinker. […]
substance,measurement,setting,value
"N,N-dimethyl-N,N-dipropylene bis(4-azido-2,3,5,6-tetrafluorobenzamide) ammonium iodide",developed film thickness (normalized to thickness before development),"PSSH film from MeOH, 10 wt % crosslinker, 254-nm DUV 200 mJ cm^-2, developed with H2O",0.92
same,exposure dose required for exhaustive reaction,"PSSH film, 254-nm DUV",100-150 mJ cm^-2
